pIC50: −log10 of the molar value. Values joined by “and” are separate entries in the source; they are usually repeats but may differ in a detail not shown here. Equal entries are not always repeated. Where two headings read alike, the source gives them in different places. Part of at least one peptide drawing is inferred or uncertain, most often the ends. For part of these data: For at least one compound, name, drawing or mass did not settle the structure. Numbered stars: 1 amine (or outer) side, 2 acyl side, 3 side chain; on linkers, the order of the positions; unused ones are H or OH. Square brackets hold non-standard residues; d marks the D form. Ends that are not written are not given here. Peptide text beside a SMILES is read from it. X1 = CSc1ccc(-c2[nH]c3ccccc3c2C[C@H](N[*:1])C(=O)[*:2])cc1
Assays:
[1] = target: T1, PDGF-β receptor (Homo sapiens, UniProt P09619); assay: Competition with 125I-PDGF-BB for binding to AG1518 fibroblasts (α receptor down regulated by PDGF-AA preincubation); details: for pIC50: read-out: Inhibitory Activity: ability to compete with PDGF-BB for binding (peptide needed to decrease binding by 50%), AG1518 cells, 0° C., asterisk = homogeneous peptide, otherwise crude
T1 construct: cultures of human foreskin fibroblast cell line AG1518; endogenous in cells; host or cells: AG1518 human foreskin fibroblasts (Human Mutant Cell Repository)
Experimental: (§1) In order to test for receptor binding, cultures of human foreskin fibroblast cell line AG1518 (obtained from the Human Mutant Cell Repository), were grown to confluence in Ham's F-12 medium containing 10% newborn calf serum. Those cells which were to be used in analysis of PDGF-β receptor binding were preincubated for 60 minutes at 37° C. in 0.5 ml/well of Ham's F-12 medium, supplemented with 1 mg/ml of bovine serum albumin (BSA), and 50 ng/ml of PDGF-AA. This combination down regulates PDGF-α receptor, as per Claesson-Welsh et al., J. Biol. Chem. 264: 1742-1747 (1989).
(§2) Cells were prepared for receptor binding analyses by washing with ice cold binding buffer (phosphate buffered saline with 0.9 mM CaCl2, 0.49 mM MgSO4 and 1 mg/ml BSA). The cells were then incubated on ice for 90 minutes with different concentrations (0-100 ug/ml) of synthetic peptides (listed in Table 1, infra), in 0.5 ml of binding buffer per well. […] The labelled ligand was added and then incubated for 60 minutes at 0° C. after which the cells were washed five times with ice cold binding buffer. The washed cells were then lysed for 60 minutes at room temperature in a lysis buffer (1% Triton X-100, 10% glycerol, 20 mM Tris-HCl, pH 7.5). Solubilized radioactivity was determined in a gamma counter. Competing activities of synthetic peptides were compared to standard curves, using unlabelled ligand.
In Table 2, "+++" means <30 μM; "++" from 30-60 μM; "+" 60-150 μM; and "-", >150 μM.

By UniProt entry, the sequences of proteins in these tests, tags left out. Residues count along the entry.
UniProt P09619, 33-1106: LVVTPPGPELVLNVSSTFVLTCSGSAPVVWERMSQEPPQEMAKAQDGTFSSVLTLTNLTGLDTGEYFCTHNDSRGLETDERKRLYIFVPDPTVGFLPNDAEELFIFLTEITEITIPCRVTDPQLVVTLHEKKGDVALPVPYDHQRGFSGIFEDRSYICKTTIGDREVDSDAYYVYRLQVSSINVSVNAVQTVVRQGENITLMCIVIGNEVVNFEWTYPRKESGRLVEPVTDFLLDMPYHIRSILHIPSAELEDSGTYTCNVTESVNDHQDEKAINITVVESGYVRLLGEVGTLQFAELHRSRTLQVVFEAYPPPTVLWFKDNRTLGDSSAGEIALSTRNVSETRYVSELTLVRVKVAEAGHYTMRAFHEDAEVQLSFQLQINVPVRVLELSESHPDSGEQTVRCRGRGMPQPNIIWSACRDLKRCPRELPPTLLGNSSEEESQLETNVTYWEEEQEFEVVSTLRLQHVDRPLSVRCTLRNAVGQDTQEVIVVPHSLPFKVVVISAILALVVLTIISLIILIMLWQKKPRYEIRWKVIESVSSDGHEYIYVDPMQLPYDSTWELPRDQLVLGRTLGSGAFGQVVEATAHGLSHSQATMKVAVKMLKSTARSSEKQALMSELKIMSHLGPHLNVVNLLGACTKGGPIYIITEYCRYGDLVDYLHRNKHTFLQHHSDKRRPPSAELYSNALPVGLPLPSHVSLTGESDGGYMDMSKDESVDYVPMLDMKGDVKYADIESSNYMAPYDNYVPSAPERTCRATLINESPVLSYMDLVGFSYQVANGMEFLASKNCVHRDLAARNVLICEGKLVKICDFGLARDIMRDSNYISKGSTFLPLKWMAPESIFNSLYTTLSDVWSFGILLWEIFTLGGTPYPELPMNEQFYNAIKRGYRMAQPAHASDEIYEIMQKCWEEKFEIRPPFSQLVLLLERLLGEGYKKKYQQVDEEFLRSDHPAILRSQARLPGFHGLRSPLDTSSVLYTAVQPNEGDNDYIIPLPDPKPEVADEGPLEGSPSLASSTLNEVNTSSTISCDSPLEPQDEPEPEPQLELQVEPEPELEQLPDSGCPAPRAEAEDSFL
UniProt P16234, 24-1089: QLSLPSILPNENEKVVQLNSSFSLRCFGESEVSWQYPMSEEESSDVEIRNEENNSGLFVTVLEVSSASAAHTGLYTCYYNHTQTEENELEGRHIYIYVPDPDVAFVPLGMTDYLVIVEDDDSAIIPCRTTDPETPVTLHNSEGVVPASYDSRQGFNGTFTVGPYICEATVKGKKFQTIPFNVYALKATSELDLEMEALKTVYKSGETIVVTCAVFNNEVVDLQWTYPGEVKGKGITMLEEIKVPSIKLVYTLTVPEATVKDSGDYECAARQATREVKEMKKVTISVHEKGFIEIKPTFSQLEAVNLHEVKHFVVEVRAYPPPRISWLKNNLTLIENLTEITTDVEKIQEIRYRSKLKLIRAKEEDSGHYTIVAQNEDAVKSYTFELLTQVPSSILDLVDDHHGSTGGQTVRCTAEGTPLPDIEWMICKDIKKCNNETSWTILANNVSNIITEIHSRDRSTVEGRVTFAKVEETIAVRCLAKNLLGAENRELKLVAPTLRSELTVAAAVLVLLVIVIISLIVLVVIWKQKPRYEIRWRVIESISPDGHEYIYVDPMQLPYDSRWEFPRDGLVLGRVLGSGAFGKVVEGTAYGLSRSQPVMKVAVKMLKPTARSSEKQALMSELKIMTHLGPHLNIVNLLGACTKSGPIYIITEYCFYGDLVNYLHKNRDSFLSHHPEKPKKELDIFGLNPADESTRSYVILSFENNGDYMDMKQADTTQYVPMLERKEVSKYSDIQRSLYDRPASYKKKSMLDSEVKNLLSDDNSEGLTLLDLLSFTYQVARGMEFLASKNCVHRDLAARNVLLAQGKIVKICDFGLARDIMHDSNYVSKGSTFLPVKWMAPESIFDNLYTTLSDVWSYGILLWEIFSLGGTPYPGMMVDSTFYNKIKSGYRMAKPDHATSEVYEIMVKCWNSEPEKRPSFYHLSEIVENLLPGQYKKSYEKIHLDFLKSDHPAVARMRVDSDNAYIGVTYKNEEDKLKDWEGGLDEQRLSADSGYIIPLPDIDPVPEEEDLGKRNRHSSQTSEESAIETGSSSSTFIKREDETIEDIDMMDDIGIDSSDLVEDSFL
UniProt A0A8W4FFG6, 32-1102: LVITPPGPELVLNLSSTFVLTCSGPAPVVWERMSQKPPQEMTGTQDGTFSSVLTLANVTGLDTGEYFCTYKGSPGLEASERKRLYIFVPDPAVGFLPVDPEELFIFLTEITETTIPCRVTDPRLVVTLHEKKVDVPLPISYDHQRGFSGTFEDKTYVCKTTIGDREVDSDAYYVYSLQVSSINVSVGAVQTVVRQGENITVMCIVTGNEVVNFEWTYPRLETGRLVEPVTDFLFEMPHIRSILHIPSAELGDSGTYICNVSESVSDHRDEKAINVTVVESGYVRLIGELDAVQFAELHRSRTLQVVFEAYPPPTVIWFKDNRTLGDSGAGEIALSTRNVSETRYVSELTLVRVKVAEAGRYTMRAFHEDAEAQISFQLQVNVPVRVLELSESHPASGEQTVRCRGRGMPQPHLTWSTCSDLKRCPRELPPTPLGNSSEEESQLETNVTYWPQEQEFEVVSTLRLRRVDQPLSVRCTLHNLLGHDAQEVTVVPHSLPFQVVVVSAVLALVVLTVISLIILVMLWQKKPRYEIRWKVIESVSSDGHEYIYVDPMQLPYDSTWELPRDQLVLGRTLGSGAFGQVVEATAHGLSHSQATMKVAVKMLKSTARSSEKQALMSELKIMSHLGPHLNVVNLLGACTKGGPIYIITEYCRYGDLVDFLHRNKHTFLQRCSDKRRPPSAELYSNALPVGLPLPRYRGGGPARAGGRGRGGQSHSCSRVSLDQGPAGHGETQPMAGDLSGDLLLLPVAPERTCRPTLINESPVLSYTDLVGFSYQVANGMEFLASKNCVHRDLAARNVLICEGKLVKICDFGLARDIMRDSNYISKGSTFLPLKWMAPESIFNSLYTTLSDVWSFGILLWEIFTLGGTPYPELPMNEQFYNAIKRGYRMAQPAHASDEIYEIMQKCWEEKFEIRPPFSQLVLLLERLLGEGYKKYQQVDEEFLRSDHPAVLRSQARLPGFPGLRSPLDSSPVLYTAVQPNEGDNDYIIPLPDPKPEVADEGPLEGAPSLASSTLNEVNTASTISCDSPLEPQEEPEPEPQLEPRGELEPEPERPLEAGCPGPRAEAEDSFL

[2] = target: T2, PDGF-α receptor (Homo sapiens, UniProt P16234); assay: Competition with 125I-PDGF-AA for binding to AG1518 fibroblasts
T2 construct: cultures of human foreskin fibroblast cell line AG1518; endogenous in cells; host or cells: AG1518 human foreskin fibroblasts
Experimental: as §1, §2

[3] = target: T3, EGF receptor (Homo sapiens, UniProt P00533); assay: Competition with 125I-EGF for binding to AG1518 fibroblasts
T3 construct: cultures of human foreskin fibroblast cell line AG1518; endogenous in cells; host or cells: human foreskin fibroblasts (AG1518)
Experimental: as §1, §2

[4] = test system: human foreskin fibroblasts; assay: Ligand stimulated [3H]thymidine incorporation; format: cell-based
Text: The possible role of peptide 16T as an antagonist for PDGF activity in vivo was investigated. Following the methodology of Betsholtz et al., J. Cell Physiol 118: 203-210 (1984), the disclosure of which is incorporated by reference, [^3 H] thymidine incorporation by human fibroblasts in the presence of various peptides was studied.

[5] = target: T4, PDGF-β receptor (Sus scrofa, UniProt A0A8W4FFG6); assay: Autophosphorylation and dimerization of partially purified PDGF-β receptor; format: biochemical, porcine; details: peptide 20: concentrations up to 20 μg
T4 construct: from Triton X-100 solubilized porcine uterus membranes and purified up to the Mono-Q chromatography step; from tissue; host or cells: porcine uterus membranes
Experimental: A preparation of PDGF-β receptor, from Triton X-100 solubilized porcine uterus membranes and purified up to the Mono-Q chromatography step of Ronnstrand et al., J. Biol. Chem. 262: 2929-2932 (1987), was made, and the autophosphorylation assay described therein was carried out.
Approximately 100 ng of the receptor was incubated for 5 minutes at 0° C. with peptide 16T or peptide 20, at different concentrations. […] Four ul of 150 μM [^32 P]ATP (containing 5×10^6 cpm of radioactivity) was added, followed by an additional 10 minutes of incubation at 0° C. Incorporation of radioactivity was terminated by adding 5 μl of 15 mM unlabelled ATP and 5 μl of 40 mM phenylphosphate. Samples were cross linked by incubating with 0.5 mM DSS (12.5 mM, in dimethyl sulfoxide) for 30 minutes at room temperature. The cross linking reaction was blocked by adding 50 mM methylammonium chloride, 20 mM Hepes, pH 7.4.

Which results are given for `CC[C@H](C)[C@H](NC(=O)[C@H](CCC(=O)O)NC(=O)[C@H](Cc1c(-c2ccc(SC)cc2)[nH]c2ccccc12)NC(=O)[C@@H](NC(=O)[C@H](CC(C)C)NC(=O)[C@H](Cc1ccccc1)NC(=O)[C@H](CC(N)=O)NC(=O)[C@H](C)N)C(C)C)C(=O)N[C@H](C(=O)N[C@@H](CCCNC(=N)N)C(=O)N[C@@H](CCCCN)C(=O)N[C@@H](CCCCN)C(=O)N1CCC[C@H]1C(=O)O)C(C)C` [*16T, Ala Asn Phe Leu Val Xaa Glu Ile Val Arg Lys Lys Pro] (H-ANFLV[X1]EIVRKKP-OH; N-terminus and C-terminus assumed)?
pIC50 [1]: > 4.52; IC50 ([1]; β receptor, read-out: 50% competition for receptor binding (converted)): 33.1 µM and 33 µM; pIC50 ([2]; α receptor, molar value in parentheses, read-out: 50% competition for receptor binding): 4.59

`CC[C@H](C)[C@H](NC(=O)[C@H](CCC(=O)O)NC(=O)[C@H](Cc1c(-c2ccc(SC)cc2)[nH]c2ccccc12)NC(=O)[C@@H](NC(=O)[C@H](CC(C)C)NC(=O)[C@H](Cc1ccccc1)NC(=O)[C@H](CC(N)=O)NC(=O)[C@H](C)NC(=O)[C@H](CC(N)=O)NC(=O)[C@@H](NC(=O)[C@H](CCCNC(=N)N)NC(=O)[C@@H](N)CC(=O)O)[C@@H](C)O)C(C)C)C(=O)N[C@H](C(=O)N[C@@H](CCCNC(=N)N)C(=O)N[C@@H](CCCCN)C(=O)N[C@@H](CCCCN)C(=O)N1CCC[C@H]1C(=O)O)C(C)C` [*19T] (H-DRTNANFLV[X1]EIVRKKP-OH; N-terminus and C-terminus assumed) was tested. Which pIC50 [1] did it give?
The pIC50 was over 4.52.

With `CC[C@H](C)[C@H](NC(=O)[C@H](Cc1ccccc1)NC(=O)[C@H](C)NC(=O)[C@@H](N)CCC(=O)O)C(=O)N[C@@H](CCCCN)C(=O)N[C@@H](Cc1c(-c2ccc(SC)cc2)[nH]c2ccccc12)C(=O)N[C@@H](CC(C)C)C(=O)N[C@H](C(=O)N[C@@H](CCCNC(=N)N)C(=O)N[C@@H](CC(N)=O)C(=O)N[C@@H](CCCCN)C(=O)N[C@H](C(=O)N1CCC[C@H]1C(=O)O)C(C)C)C(C)C` [*20T, reference compound] as the compound, how does the pIC50 [1] read?
The pIC50 was under 3.82.

ANFLVWEIVRKKP [*16] was tested. Which pIC50 [1] did it give?
Its pIC50 is under 3.82.

What does the source list for EAFIKWLVRNKVP [*20, reference compound]?
Receptor competing activity, PDGF-BB binding (in words) ([1]; AG1518 cells, competing activity): did not compete for binding; Receptor competing activity, PDGF-AA binding (in words) ([2]; AG1518 cells): did not compete for binding; Competition for binding of 125I-EGF to the EGF receptor (in words) [3]: none of peptides 16, 16T, 20 and 20T compete; Effect on ligand stimulated [3H]thymidine incorporation (in words) ([4]; PDGF-AA, PDGF-BB or EGF stimulation): minor effect; [3H]thymidine incorporation, Control ([4]; peptide present, no ligand, mean of duplicates): 348 cpm; [3H]thymidine incorporation, EGF ([4]; peptide present, stimulated with EGF, mean of duplicates): 2059 cpm; [3H]thymidine incorporation, PDGF-AA ([4]; peptide present, stimulated with PDGF-AA, mean of duplicates): 535 cpm; [3H]thymidine incorporation, PDGF-BB ([4]; peptide present, stimulated with PDGF-BB, mean of duplicates): 1541 cpm; Effect on dimerization and autophosphorylation (in words) [5]: no effect
